One substance from paper PMC10754140 can be followed below.

The chains behind the UniProt entries cited, without tags or fusion partners.
UniProt Q15154: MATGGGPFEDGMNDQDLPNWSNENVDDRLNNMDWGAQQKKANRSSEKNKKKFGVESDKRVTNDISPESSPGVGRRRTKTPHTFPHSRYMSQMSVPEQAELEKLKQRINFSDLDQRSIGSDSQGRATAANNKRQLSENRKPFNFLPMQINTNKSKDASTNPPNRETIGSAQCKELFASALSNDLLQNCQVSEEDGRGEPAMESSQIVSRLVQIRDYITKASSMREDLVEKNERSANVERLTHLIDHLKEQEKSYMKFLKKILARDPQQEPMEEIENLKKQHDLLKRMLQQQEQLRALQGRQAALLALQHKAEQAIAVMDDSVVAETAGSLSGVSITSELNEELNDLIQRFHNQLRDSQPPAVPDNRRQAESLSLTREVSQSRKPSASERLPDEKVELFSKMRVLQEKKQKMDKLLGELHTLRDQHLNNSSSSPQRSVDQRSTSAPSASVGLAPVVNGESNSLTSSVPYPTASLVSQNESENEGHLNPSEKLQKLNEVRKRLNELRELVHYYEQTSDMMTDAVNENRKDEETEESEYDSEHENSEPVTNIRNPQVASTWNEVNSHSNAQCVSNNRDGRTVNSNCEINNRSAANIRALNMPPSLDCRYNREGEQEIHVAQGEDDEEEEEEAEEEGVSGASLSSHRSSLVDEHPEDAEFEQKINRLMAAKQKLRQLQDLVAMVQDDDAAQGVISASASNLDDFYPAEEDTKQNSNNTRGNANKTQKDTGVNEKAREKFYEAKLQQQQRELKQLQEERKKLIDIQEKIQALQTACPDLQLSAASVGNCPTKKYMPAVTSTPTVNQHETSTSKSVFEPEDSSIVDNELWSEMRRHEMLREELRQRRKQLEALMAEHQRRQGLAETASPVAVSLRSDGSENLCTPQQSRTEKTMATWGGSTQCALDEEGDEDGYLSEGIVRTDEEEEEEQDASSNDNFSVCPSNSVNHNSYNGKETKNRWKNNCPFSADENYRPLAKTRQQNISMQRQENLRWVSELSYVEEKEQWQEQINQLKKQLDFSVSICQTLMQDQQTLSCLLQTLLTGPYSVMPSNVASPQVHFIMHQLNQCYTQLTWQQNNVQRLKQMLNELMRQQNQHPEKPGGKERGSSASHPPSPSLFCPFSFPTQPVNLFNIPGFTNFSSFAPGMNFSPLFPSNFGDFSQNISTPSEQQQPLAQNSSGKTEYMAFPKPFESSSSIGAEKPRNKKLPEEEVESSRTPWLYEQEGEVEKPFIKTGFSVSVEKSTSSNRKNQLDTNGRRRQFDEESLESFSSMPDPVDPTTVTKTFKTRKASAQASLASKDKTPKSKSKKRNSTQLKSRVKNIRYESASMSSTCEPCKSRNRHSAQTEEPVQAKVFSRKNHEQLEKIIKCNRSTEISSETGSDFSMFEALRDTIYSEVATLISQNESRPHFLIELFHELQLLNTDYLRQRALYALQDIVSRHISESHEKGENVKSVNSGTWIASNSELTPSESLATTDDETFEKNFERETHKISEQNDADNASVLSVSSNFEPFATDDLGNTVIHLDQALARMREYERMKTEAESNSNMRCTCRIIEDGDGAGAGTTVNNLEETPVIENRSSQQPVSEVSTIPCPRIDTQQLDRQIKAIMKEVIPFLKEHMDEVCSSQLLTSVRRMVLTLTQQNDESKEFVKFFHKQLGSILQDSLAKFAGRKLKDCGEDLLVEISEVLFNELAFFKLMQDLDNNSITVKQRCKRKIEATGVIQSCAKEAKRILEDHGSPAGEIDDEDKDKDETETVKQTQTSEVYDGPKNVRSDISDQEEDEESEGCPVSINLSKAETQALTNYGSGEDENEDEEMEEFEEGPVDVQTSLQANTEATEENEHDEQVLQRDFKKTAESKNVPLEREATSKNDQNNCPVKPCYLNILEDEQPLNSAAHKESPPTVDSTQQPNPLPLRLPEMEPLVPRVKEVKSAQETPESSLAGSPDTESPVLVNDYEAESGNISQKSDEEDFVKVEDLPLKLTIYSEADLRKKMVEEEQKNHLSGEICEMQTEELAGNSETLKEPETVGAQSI

These are yes or no findings as the source states them, for the method shown. In cells and extracts the contact can be indirect. Here binding means that the protein was enriched with, or labelled near, the bait; the list need not be complete.

For this assay, the target named is T1, O‐GlcNAc transferase (OGT), endogenous (human (endogenous in MCF10A)) (UniProt O15294).
T1 sequence: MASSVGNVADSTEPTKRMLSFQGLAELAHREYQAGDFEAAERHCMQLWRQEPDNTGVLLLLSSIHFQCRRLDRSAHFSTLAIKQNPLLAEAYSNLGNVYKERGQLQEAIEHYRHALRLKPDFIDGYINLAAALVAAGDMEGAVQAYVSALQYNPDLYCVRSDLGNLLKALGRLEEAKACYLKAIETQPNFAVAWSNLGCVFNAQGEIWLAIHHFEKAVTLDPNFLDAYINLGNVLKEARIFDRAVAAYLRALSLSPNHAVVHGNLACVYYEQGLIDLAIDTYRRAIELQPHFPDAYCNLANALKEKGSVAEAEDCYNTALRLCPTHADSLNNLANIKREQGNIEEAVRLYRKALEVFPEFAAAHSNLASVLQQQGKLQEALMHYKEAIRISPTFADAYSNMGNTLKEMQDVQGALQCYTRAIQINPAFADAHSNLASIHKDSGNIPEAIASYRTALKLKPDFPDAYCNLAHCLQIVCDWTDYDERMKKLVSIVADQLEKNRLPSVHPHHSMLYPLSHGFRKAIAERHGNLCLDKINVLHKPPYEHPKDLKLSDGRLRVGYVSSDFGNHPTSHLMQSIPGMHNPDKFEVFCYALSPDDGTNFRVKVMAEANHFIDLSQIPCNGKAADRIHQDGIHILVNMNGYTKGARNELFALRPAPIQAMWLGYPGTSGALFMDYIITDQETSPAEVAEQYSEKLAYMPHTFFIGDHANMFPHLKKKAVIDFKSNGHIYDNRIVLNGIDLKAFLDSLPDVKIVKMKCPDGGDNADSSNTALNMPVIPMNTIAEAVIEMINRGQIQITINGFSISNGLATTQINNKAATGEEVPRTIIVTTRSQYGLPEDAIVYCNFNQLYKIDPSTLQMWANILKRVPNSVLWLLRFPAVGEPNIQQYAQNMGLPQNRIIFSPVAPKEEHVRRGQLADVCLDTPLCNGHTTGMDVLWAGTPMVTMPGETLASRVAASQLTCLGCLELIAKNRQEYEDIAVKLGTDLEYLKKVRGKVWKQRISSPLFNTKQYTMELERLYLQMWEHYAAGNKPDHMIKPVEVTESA
Description: affinity purification with mass spectrometry; anti-OGT antibody used to immunoprecipitate endogenous OGT from MCF10A cell lysate; SDS-PAGE, Coomassie staining, tandem mass spectrometry.

As to “pericentriolar material 1 (PCM1), endogenous (from UniProt Q15154 1-2024)”, the binding entry is “binds”.
